These are yes or no findings as the source states them, for the method shown. In cells and extracts the contact can be indirect. Here binding means that the protein was enriched with, or labelled near, the bait; the list need not be complete. For part of these data: No binding means not detected with the bait.
Assays:
[1] = target: Chd4 (chromatin helicase DNA binding protein 4) (mouse (endogenous in heart)) (UniProt Q6PDQ2); assay: affinity purification with mass spectrometry; Chd4 immunoprecipitated with mouse monoclonal anti-Chd4 (ab70469) from nuclear extracts of 4-week-old WT mouse hearts; Chd4 cKO (Chd4corin) hearts as control; in-gel trypsin digestion, LC-MS/MS
[2] = target: Chd4 (chromatin helicase DNA binding protein 4) (mouse (endogenous in heart)), Q6PDQ2; assay: as above; settings: remark: other sources report otherwise

Amino acid sequences for entries named in this document (tags omitted).
UniProt Q6PDQ2: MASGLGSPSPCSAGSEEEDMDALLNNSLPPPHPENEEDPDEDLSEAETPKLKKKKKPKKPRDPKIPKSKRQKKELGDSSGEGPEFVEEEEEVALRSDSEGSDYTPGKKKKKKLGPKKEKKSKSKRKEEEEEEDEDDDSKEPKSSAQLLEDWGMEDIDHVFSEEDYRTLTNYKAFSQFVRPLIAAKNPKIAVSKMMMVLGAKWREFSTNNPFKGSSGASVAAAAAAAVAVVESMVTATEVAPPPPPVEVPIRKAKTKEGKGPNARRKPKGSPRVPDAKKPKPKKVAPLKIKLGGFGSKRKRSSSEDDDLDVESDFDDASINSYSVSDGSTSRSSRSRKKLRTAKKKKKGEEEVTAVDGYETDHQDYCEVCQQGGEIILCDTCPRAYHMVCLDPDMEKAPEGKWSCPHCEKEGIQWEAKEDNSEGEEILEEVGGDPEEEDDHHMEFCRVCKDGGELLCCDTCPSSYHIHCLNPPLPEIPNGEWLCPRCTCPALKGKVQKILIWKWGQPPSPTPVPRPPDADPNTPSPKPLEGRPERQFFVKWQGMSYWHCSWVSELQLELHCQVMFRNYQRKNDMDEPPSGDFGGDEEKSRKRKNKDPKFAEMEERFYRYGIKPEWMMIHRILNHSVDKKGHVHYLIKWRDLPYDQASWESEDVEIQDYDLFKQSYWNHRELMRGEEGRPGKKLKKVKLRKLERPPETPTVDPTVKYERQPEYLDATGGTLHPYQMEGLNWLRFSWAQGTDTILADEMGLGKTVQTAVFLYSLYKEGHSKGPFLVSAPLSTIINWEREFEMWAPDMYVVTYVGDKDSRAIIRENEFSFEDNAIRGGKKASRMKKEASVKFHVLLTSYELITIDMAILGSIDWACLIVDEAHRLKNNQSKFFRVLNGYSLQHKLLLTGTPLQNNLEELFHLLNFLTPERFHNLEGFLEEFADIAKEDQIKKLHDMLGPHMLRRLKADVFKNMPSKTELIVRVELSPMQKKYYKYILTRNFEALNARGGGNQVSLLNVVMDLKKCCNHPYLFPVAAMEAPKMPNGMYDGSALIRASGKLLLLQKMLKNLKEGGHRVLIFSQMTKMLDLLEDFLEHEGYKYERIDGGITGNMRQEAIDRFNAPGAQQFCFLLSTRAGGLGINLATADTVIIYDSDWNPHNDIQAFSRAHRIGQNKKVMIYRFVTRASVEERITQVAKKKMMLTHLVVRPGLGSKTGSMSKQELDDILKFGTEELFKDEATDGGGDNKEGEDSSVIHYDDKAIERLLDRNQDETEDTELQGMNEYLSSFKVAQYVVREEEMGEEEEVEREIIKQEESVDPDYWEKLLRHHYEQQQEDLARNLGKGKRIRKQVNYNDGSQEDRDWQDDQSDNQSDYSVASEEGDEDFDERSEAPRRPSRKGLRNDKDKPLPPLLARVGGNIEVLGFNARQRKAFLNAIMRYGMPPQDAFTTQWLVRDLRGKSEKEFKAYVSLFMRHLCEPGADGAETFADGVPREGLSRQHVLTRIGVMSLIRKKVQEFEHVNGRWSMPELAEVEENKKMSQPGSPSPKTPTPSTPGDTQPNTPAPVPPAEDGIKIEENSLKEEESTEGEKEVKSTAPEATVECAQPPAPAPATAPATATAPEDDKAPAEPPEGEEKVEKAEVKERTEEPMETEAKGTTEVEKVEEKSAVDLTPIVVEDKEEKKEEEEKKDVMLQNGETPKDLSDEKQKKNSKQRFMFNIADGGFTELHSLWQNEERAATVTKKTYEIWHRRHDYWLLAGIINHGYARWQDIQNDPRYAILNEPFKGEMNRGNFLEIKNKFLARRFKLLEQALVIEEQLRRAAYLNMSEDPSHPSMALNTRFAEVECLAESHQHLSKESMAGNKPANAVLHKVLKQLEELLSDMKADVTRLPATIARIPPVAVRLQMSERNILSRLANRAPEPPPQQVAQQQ

B1: Znf219 (protein, UniProt Q6IQX8 1-726)
chain: MEGSRPRILVGHLEPSPPAFDGELDLQRYSNGPGVSGTPGPGSPGMGAVGWSETRAGERRFPCPVCGKRFRFNSILALHLRAHPGAQAFQCPHCGHRAAQRALLRSHLRTHQPERPRSPAARLLLELEERALLREARLGRARSSGGMQSSPAAEGLARPQVPSSSAFRCPFCKGKFRTSAERERHLHILHRPWKCSLCSFGSSQEEELLHHSLTAHGASERPLAATSTPEPPPPPQQEPRSALEPEPEPEPRPEPDREANPAPTPAPPEEPPAPPEFRCQVCGQSFTQSWFLKGHMRKHKASFDHACPVCGRCFKEPWFLKNHMKVHTSKLGPLRAPGPGSAPARAPQPPDLSLLAYEPLGPALLLAPAPAPAERREPPSLLGYLSVRAGEVRPNGEGADPGGGRSYGGFRPLPSALPNRARRHRTEEPEEEEEVVEAEEESWARGRSLGSLTSLHPNPGEGSGQPAPAAGTQARSTATQEENGLLVGGTRSEAGRGATGKDCPFCGKSFRSAHHLKVHLRVHTGERPYKCPHCDYAGTQSGSLKYHLQRHHREQRSSAGPGPPPEPPPPSQRGSLQPQSGAKPTQASATWVEGTASTRPPSSSTGPGSRRKPASPGRTLRNGRGGEAEPLDLSLRAGPGGEAGAGGALHRCLFCPFATGAPELMALHLQVHHSRRARGRRQPRADTSPTYVRAPSGETPPSPPLEEEGSPGLSRSGEAGLGGQER
With B1 the binding [1] was “binds”.

B2: Zbtb20 (protein, UniProt Q8K0L9 1-741)
chain: MLERKKPKTAENQKASEENEITQPGGSSAKPALPCLNFEAVLSPAPALIHSTHSLTNSHAHTGSSDCDISCKGMTERIHSINLHNFSNSVLETLNEQRNRGHFCDVTVRIHGSMLRAHRCVLAAGSPFFQDKLLLGYSDIEIPSVVSVQSVQKLIDFMYSGVLRVSQSEALQILTAASILQIKTVIDECTRIVSQNVGDVFPGIQDSGQDTPRGTPESGTSGQSSDTESGYLQSHPQHSVDRIYSALYACSMQNGSGERSFYSGAVVSHHETALGLPRDHHMEDPSWITRIHERSQQMERYLSTTPETTHCRKQPRPVRIQTLVGNIHIKQEMEDDYDYYGQQRVQILERNESEECTEDTDQAEGTESEPKGESFDSGVSSSIGTEPDSVEQQFGAAAPRDGQAEPAQPEQAAEAPAESSAQPNQLEPGASSPERSNESEMDNTVITVSNSSDKGVLQQPSVNTSIGQPLPSTQLYLRQTETLTSNLRMPLTLTSNTQVIGTAGNTYLPALFTTQPAGSGPKPFLFSLPQPLTGQQTQFVTVSQPGLSTFTAQLPAPQPLASSAGHSTASGQGDKKPYECTLCNKTFTAKQNYVKHMFVHTGEKPHQCSICWRSFSLKDYLIKHMVTHTGVRAYQCSICNKRFTQKSSLNVHMRLHRGEKSYECYICKKKFSHKTLLERHVALHSASNGTPPAGTPPGARAGPPGVVACTEGTTYVCSVCPAKFDQIEQFNDHMRMHVSDG
In the case of B2, the binding [1] is reported as “binds”.

B3: Tbx5, P70326 1-518 (protein)
chain: MADTDEGFGLARTPLEPDSKDRSCDSKPESALGAPSKSPSSPQAAFTQQGMEGIKVFLHERELWLKFHEVGTEMIITKAGRRMFPSYKVKVTGLNPKTKYILLMDIVPADDHRYKFADNKWSVTGKAEPAMPGRLYVHPDSPATGAHWMRQLVSFQKLKLTNNHLDPFGHIILNSMHKYQPRLHIVKADENNGFGSKNTAFCTHVFPETAFIAVTSYQNHKITQLKIENNPFAKGFRGSDDLELHRMSRMQSKEYPVVPRSTVRHKVTSNHSPFSSETRALSTSSNLGSQYQCENGVSGPSQDLLPPPNPYPLAQEHSQIYHCTKRKDEECSSTEHPYKKPYMETSPSEEDTFYRSGYPQQQGLSTSYRTESAQRQACMYASSAPPSEPVPSLEDISCNTWPSMPSYSSCTVTTVQPMDRLPYQHFSAHFTSGPLVPRLAGMANHGSPQLGEGMFQHQTSVAHQPVVRQCGPQTGLQSPGGLQPPEFLYTHGVPRTLSPHQYHSVHGVGMVPEWSENS
B3 was tested, and the binding [2] was “no binding”.

From PMC9455175
